Values from PubChem BioAssay AID1053208 (Peter MacCallum Cancer Centre, 2014)
In all, the deposit lists about 17,000 reagents; shown is an unselected part. Of all reagents, 788 (4.7%) were called active. 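Calls rest on z-score classes alone; an extra cut-off of viability at most 70% of control was not applied to them.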 A number with no mark means an inactive call.

- Purpose: 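Synthetic lethal interactions between gene loss and doxorubicin in osteosarcoma cells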 (primary screen)
- Cell system: mouse osteosarcoma cells, early-passage culture from an engineered mouse model of fibroblastic bone tumour
- Reagents: siRNA pool against mouse genes, 40 nM
- Time to read-out: about 120 h (48 h before drug, then 72 h with drug)
- Conditions: doxorubicin 100 nM for 72 h, roughly 30-40% inhibitory dose
- Measured: 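Viability read as ATP luminescence after 72 h of 100 nM doxorubicin or none, duplicate wells averaged, scaled to non-targeting siRNA, then expressed as robust z-scores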
- Scale: viability z-score with doxorubicin and doxorubicin viability vs non-targeting: higher = more viable cells under doxorubicin; viability z-score without drug: higher = more viable cells with knock-down alone; z-score of drug to no-drug ratio: higher = less drug sensitisation by knock-down
- Active means: 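Called active if knock-down leaves viability unchanged without drug (z within -2 to 2) but lowers it with doxorubicin (z at or under -2)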

target gene	combined z-score class	viability z-score with doxorubicin	viability z-score without drug	z-score of drug to no-drug ratio	doxorubicin viability vs non-targeting
Aknaos	low cell count with doxorubicin only (active)	-2.47	-1.52	-1.57	0.72
Arrb2	no change with or without drug	-0.67	0.67	-1.01	0.88
Entrep2	no change with or without drug	0	1.35	-0.79	0.94
Boll	no change with or without drug	0	-0.84	0.67	0.94
Or13c25	no change with or without drug	-0.11	-0.17	0.11	0.93
Clstn2	no change with or without drug	0.22	-0.84	1.01	0.96
Stk16	no change with or without drug	1.01	-0.17	1.35	1.03
Ctbp2	no change with or without drug	0.9	0.51	0.67	1.02
Slc4a8	no change with or without drug	0.34	1.52	-0.56	0.97
Tprn	no change with or without drug	0.45	-0.51	1.01	0.98
Rem1	no change with or without drug	-0.45	0.17	-0.45	0.9
Alg14	no change with or without drug	-1.01	-1.01	-0.22	0.85
Ak9	no change with or without drug	1.24	1.18	0.56	1.05
Astn2	no change with or without drug	1.12	-0.34	1.57	1.04
Nlrp12	no change with or without drug	1.35	1.01	0.79	1.06
Cald1	no change with or without drug	0.22	0.34	0.11	0.96

Records listed so far with an active call:
target gene	combined z-score class	viability z-score with doxorubicin	viability z-score without drug	z-score of drug to no-drug ratio	doxorubicin viability vs non-targeting
Aknaos	low cell count with doxorubicin only (active)	-2.47	-1.52	-1.57	0.72

Next entries:
target gene	combined z-score class	viability z-score with doxorubicin	viability z-score without drug	z-score of drug to no-drug ratio	doxorubicin viability vs non-targeting
Asap1	no change with or without drug	0.9	1.69	-0.11	1.02
Rbm15	no change with or without drug	0.22	0.51	0	0.96
Rfxank	no change with or without drug	0.9	-1.52	2.36	1.02
Ramp3	no change with or without drug	-0.67	0.51	-0.9	0.88
H4c8	no change with or without drug	1.12	1.01	0.56	1.04
Zfpm2	high cell count without drug only	1.46	2.87	-0.22	1.07
Robo4	no change with or without drug	0.9	1.01	0.34	1.02
Ccdc125	low cell count without drug only	-1.12	-2.87	1.12	0.84
Tbc1d1	no change with or without drug	-0.45	0.84	-0.9	0.9
Ptprg	no change with or without drug	0.56	-0.17	0.79	0.99
Nadk	no change with or without drug	-1.12	-1.18	-0.34	0.84
Krtap13	no change with or without drug	-1.24	-1.18	-0.45	0.83
Tmem81	high cell count without drug only	-1.12	3.54	-2.92	0.84
Rps28	low cell count with and without drug	-6.41	-4.89	-4.72	0.37
Or10g6	no change with or without drug	-0.56	0.51	-0.79	0.89
Mterf3	high cell count with doxorubicin only	2.02	-1.18	3.26	1.12
Il1r2	no change with or without drug	-1.12	-1.18	-0.34	0.84
Gpr132	no change with or without drug	0.22	-0.51	0.67	0.96
Slc25a3	no change with or without drug	-1.91	1.01	-2.47	0.77
Ctso	no change with or without drug	0	-0.51	0.45	0.94
Utp6	no change with or without drug	-0.45	-1.01	0.34	0.9
A2m	no change with or without drug	-0.9	-1.85	0.45	0.86
Surf6	no change with or without drug	0.22	0.84	-0.22	0.96
Il22b	no change with or without drug	-0.22	-0.17	0	0.92
Synj2bp	no change with or without drug	-1.12	-0.17	-1.01	0.84
Ccdc14	high cell count without drug only	1.35	2.19	0	1.06
Ttc24	no change with or without drug	0.45	0.67	0.11	0.98
Fn3krp	no change with or without drug	0	-0.67	0.56	0.94
Fgf21	no change with or without drug	-1.57	0	-1.57	0.8
Pde4a	no change with or without drug	0.11	-0.17	0.34	0.95
Trip13	no change with or without drug	-0.45	-0.51	0	0.9
Tmem186	low cell count with doxorubicin only (active)	-2.02	-0.84	-1.57	0.76
Efl1	no change with or without drug	0.11	-0.17	0.34	0.95
Luzp1	no change with or without drug	-0.45	-0.17	-0.22	0.9
